According to doi:10.1101/2022.05.02.490374:
Results are given in words; binding and its absence hold for the method and conditions named. In cells and extracts the contact can be indirect. Some entries that bind do so weakly or less than the wild type.

Amino acid sequences for entries named in this document (tags omitted).
UniProt O02799: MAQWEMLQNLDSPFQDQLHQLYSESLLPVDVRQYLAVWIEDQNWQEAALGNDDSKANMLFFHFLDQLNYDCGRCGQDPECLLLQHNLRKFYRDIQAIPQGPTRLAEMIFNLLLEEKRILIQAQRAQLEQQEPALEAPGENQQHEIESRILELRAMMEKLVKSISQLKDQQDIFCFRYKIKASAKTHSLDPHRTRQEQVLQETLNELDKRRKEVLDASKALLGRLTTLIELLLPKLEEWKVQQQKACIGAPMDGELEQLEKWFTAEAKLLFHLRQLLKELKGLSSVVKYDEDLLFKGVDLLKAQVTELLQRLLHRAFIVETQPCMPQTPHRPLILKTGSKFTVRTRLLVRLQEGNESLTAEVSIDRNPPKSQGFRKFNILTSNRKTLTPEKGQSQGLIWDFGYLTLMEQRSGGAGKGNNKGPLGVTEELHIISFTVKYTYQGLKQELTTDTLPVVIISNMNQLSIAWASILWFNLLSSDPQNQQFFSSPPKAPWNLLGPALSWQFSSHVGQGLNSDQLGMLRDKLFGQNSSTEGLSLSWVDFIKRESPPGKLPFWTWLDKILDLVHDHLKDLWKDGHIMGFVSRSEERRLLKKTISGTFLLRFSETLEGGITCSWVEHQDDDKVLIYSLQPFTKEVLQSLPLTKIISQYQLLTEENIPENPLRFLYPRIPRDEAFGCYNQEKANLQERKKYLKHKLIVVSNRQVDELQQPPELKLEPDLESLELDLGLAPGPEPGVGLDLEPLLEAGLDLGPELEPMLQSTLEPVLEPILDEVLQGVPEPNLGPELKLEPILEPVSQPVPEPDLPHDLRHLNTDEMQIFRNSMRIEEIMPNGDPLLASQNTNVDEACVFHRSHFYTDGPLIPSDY

Biological target: T1, endogenous STAT1 (pig (endogenous in PK15)) (UniProt Q764M5)
T1 sequence: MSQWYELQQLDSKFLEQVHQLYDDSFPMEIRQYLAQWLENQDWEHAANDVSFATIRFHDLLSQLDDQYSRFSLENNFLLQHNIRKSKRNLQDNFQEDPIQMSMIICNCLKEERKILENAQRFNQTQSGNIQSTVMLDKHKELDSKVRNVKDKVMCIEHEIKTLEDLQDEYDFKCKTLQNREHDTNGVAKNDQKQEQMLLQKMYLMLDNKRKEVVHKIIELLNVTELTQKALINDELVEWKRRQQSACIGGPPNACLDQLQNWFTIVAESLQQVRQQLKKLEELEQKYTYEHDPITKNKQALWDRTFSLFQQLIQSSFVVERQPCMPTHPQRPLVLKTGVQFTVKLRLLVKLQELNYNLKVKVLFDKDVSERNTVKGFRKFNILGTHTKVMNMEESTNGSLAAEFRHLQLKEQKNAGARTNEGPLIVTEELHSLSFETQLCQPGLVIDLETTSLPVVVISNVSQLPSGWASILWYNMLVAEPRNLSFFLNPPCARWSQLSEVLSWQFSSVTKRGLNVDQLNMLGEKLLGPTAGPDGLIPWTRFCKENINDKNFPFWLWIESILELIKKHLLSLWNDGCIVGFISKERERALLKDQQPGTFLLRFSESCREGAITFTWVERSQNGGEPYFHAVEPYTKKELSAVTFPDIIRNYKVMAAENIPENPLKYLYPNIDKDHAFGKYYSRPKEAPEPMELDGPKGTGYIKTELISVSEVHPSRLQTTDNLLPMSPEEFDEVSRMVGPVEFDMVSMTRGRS
Assay: co-IP

Question: For “endogenous STAT2 (from UniProt O02799 1-864)”, which binding is on record?
Answer: binds
